This test has as its target GST-GABARAP (human) (UniProt O95166). Description: pull-down; GST pull-down: purified GST-LC3A/B/C or GST-GABARAP/L1/L2 bait (200–240 µg) on glutathione resin, purified His-FLAG-hEPG5 or mutant (25–30 µg) as prey; 50 mM Tris pH 8.0, 150 mM NaCl, 5% glycerol, 0.01% Tween20, 0.5 mM DTT, 4 °C; anti-FLAG fluorescence western blot; both purified.

Amino acid sequences for entries named in this document (tags omitted).
UniProt O95166: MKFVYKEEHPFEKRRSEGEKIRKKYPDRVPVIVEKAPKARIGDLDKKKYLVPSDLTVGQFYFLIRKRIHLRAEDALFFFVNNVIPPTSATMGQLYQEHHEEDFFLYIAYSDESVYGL

No constants are given. Whether binding was seen depends on the method and setting.

B1: hEPG5^Δ1–1198 (domain or fragment, UniProt Q9HCE0 1199-2579)
chain: YHCDRSLLSSLVSWIVAGNITPSFVEGLATPTQVWFAWTVLNMESIFEEDSQLRRVIEGELVINSAFTPDQALKKAQTQLKLPIVPSLQRLLIYRWAHQALVTPSDHPLLPLIWQKFFLLYLHRPGPQYGLPIDGCIGRRFFQSPAHINLLKEMKRRLTEVADFHHAASKALRVPAEGSEGLPESHSGTPGYLTSPELHKELVRLFNVYILWLEDENFQKGDTYIPSLPKHYDIHRLAKVMQNQQDLWMEYLNMERIYHEFQETVGLWTQAKLESHSTPCSLSVQLDFTDPLLAKERVLSNLRKHEAPQPPLALHPTKPPVPVISSAVLLSQKDATQLVCTDLNLLQQQARTAALRESQQVALDGELLDTMPKQYVNREEQTTLHLECRGSSGKKCQGAAVVTVQFEGMHKNEAISQQLHVLRKEVKQLQAEAAKPPSLNIVEAAVHAENLITALVNAYKLQPTPGIQKVGISLFFTIVDYVSDETQRHPPTRQFFTSCIEILGQVFISGIKSECRKVLETILKNSRLCSLLSPFFTPNAAPAEFIQLYEQVVKFLSEDNSDMIFMLLTKFDLKQWLSATKPPLSDRTRLLESIHLALTAWGLEPDEDILMPFNLFCKHWTYLLLYQFPDQYSDILRLLMQSSAEQLLSPECWKATLRALGCCAPSCQQGAASTEGAVLPSSSDALLSDKQVMETIQWLSDFFYKLRLSKMDFKSFGLFSKWSPYMADVKTFLGYLVKRLIDLEMTCLAQDPTASRKTVLKSLHSVIIQLFKPWILVLEDNESSQQRHYPWLESDTVVASSIVQLFTDCIDSLHESFKDKLLPGDAGALWLHLMHYCEACTAPKMPEFILYAFHSTYRKLPWKDLHPDQMLMEAFFKVERGSPKSCFLFLGSVLCEVNWVSVLSDAWNSSPHPETRSMIVCLLFMMILLAKEVQLVDQTDSPLLSLLGQTSSLSWHLVDIVSYQSVLSYFSSHYPPSIILAKESYAELIMKLLKVSAGLSIPTDSQKHLDAVPKCQAFTHQMVQFLSTLEQNGKITLAVLEQEMSKLLDDIIVFNPPDMDSQTRHMALSSLFMEVLMMMNNATIPTAEFLRGSIRTWIGQKMHGLVVLPLLTAACQSLASVRHMAETTEACITAYFKESPLNQNSGWGPILVSLQVPELTMEEFLQECLTLGSYLTLYVYLLQCLNSEQTLRNEMKVLLILSKWLEQVYPSSVEEEAKLFLWWHQVLQLSLIQTEQNDSVLTESVIRILLLVQSRQNLVAEERLSSGILGAIGFGRKSPLSNRFRVVARSMAAFLSVQVPMEDQIRLRPGSELHLTPKAQQALNALESMASSKQYVEYQDQILQATQFIRHPGHCLQDGKSFLALLVNCLYPEVHYLDHIR
On to B1, for which the binding entry is listed as “no binding (tested: 25–30 µg hEPG5 on 200–240 µg bait)”.

(Values after article PMC7935953, “Insights on autophagosome–lysosome tethering from structural and biochemical characterization of human autophagy factor EPG5” (Communications Biology, 2021).)
